# Library screen at single concentrations

The chains behind the UniProt entries cited, without tags or fusion partners.
UniProt P9WFT3, whole entry: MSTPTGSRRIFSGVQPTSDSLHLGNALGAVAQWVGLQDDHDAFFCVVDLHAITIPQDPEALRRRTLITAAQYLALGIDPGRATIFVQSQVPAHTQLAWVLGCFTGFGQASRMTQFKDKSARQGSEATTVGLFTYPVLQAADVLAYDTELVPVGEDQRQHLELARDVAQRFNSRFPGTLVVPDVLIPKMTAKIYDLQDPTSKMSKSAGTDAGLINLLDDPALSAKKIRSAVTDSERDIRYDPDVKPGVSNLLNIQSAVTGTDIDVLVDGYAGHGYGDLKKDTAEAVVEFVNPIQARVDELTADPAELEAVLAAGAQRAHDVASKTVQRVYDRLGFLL
UniProt P9WNZ1, whole entry: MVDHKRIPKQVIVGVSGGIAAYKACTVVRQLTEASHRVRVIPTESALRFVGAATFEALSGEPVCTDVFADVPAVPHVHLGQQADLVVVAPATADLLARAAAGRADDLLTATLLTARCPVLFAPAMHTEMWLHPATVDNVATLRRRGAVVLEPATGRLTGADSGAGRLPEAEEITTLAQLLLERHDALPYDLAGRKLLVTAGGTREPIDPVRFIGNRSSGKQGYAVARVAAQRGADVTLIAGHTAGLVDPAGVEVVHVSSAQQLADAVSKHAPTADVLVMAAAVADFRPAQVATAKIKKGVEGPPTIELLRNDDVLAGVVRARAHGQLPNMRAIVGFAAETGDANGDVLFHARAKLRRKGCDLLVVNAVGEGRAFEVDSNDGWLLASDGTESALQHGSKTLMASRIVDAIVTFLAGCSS

MtTrpRS: 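Enzyme assay of tryptophanyl-tRNA synthetase; the read-out is not stated. Target: Tryptophan-tRNA ligase, Mycobacterium tuberculosis (UniProt P9WFT3). Tested at 10 µM. Direction is not recorded; retested compounds ran higher, which suggests that high means inhibition. About 65,000 compounds were tested under these conditions; 0.098% (about 64) showed 50% or more at least once.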
CoaBC: 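Coenzyme A biosynthesis protein CoaBC, Mycobacterium tuberculosis (UniProt P9WNZ1). Enzyme assay of CoaBC with a phosphate dye (Biomol Green) read at 650 nm. Compounds at 30 µM. Direction is inferred from only a few compounds that gave an IC50; most scored high, so higher reads as stronger inhibition. Most strong results did not repeat in a second test. Size under these conditions: about 67,000 compounds, about 40 of them at 50% or above in at least one test.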

Results are given as percent effect. How 0% and 100% were set is not recorded. Most values in the screen are low, and negative values occur. The compounds are a random part of those screened.

{"compound": "O=C(c1cn(-c2ccccc2Cl)nn1)N1CCSCC1", "MtTrpRS": 1.988, "CoaBC": 0}
{"compound": "CC(C)CNC(=O)Cn1cc(C(N)=O)c(-c2ccccc2)n1", "MtTrpRS": 1.639, "CoaBC": 15.89}
{"compound": "O=C(c1ccc(=O)[nH]c1)N1CCCC1c1nc2cc(F)ccc2[nH]1", "stereo": "stereo unspecified", "MtTrpRS": 2.037, "CoaBC": 3.061}
{"compound": "Cn1cc(C2CCCN2C(=O)Cn2ccc3ccc(Cl)cc32)cn1", "stereo": "stereo unspecified", "MtTrpRS": 10.7, "CoaBC": 15.63}
{"compound": "Cc1cccc(OC2(C(=O)O)CCN(C(=O)CCc3ccco3)CC2)c1", "MtTrpRS": -5.369, "CoaBC": -1.794}
{"compound": "O=C(C1CCOCC1)N1CC[C@H]2C[C@@H](c3ccncn3)O[C@@H]2C1", "MtTrpRS": 4.89, "CoaBC": 3.475}
{"compound": "Cc1ccc(S(=O)(=O)NC(=O)CCOCC(C)C)s1", "MtTrpRS": 23.16, "CoaBC": 13.03}
{"compound": "CCOc1cccc(CNc2ccccc2C(F)(F)F)c1O", "MtTrpRS": -3.992, "CoaBC": -1.01}
{"compound": "COc1ccc(NCc2c[nH]nc2-c2cccnc2)cc1", "MtTrpRS": 11.29, "CoaBC": -1.266}
{"compound": "Cc1cnn(CC2CCCN2c2ccc(C#N)cn2)c1", "stereo": "stereo unspecified", "MtTrpRS": 10.87, "CoaBC": 9.761}
{"compound": "Cc1ccoc1-c1nnc(CN2CCOC(Cn3cccn3)C2)o1", "stereo": "stereo unspecified", "MtTrpRS": -4.928, "CoaBC": -0.2625}
{"compound": "CC(C)(C)CCCC(=O)Nc1ccnn1C1CCS(=O)(=O)C1", "stereo": "stereo unspecified", "MtTrpRS": -1.14, "CoaBC": 3.113}
{"compound": "O=C(c1ccco1)N1CCO[C@@H]2CN(c3ccccc3)CC[C@@H]2C1", "MtTrpRS": 14.7, "CoaBC": 5.25}
{"compound": "Cc1cccc(OCCNC(=O)CN2CCCC2Cn2cccn2)c1", "stereo": "stereo unspecified", "MtTrpRS": 1.267, "CoaBC": -1.503}
{"compound": "CN1CCCN(C(=O)c2cc3c(s2)CCN3C(=O)c2ccccc2)CC1", "MtTrpRS": 0.7214, "CoaBC": -9.165}
{"compound": "Cc1noc2nc(C3CC3)c(Cl)c(C(=O)O)c12", "MtTrpRS": 2.265, "CoaBC": -1.205}
{"compound": "Cc1cc(C)c2c(N3CCC(C(=O)N4CCOCC4)CC3)ncnc2n1", "MtTrpRS": 1.175, "CoaBC": -5.124}
{"compound": "CCCn1nccc1C(=O)N1CCN(C(=O)C2CC2)[C@@H]2CS(=O)(=O)C[C@@H]21", "MtTrpRS": -1.698, "CoaBC": 0.7712}
{"compound": "Cc1ccccc1C(C(=O)NCCS(C)(=O)=O)N(C)C", "stereo": "stereo unspecified", "MtTrpRS": 0.7698, "CoaBC": -8.491}
{"compound": "COc1ccc(CNCc2c(C(C)C)nn(C)c2N(C)C)cn1", "MtTrpRS": -3.578, "CoaBC": 8.238}
{"compound": "CN(C)CCNC(=O)c1sc2ccccc2c1C1CCC(CN)CC1", "stereo": "stereo unspecified", "MtTrpRS": -2.378, "CoaBC": 3.8}
{"compound": "CCOc1cccc2c1OCC(C(=O)NS(=O)(=O)Cc1ccccc1)=C2", "MtTrpRS": 2.739, "CoaBC": 0.3559}
{"compound": "Cc1nn(C)cc1Cn1c(=O)cnc2ccccc21", "MtTrpRS": 2.101, "CoaBC": 2.299}
{"compound": "O=C(c1ccno1)N1CC[C@@H]2CN(C3CCOCC3)CCO[C@@H]2C1", "CoaBC": 3.837}
{"compound": "CC(=O)N1CCC2(CC1)CCN(S(=O)(=O)c1ccccc1)C2", "MtTrpRS": 7.994, "CoaBC": -1.158}
{"compound": "CCS(=O)(=O)N1CCOC(CCCc2ccccc2)C1", "stereo": "stereo unspecified", "MtTrpRS": 14.74, "CoaBC": 11.74}
{"compound": "COCCC(=O)N1CCCC(c2n[nH]cc2C)C1", "stereo": "stereo unspecified", "MtTrpRS": 18.96, "CoaBC": -9.448}
{"compound": "Cc1noc(C(C)Nc2ccc3c(c2)CCC3)n1", "stereo": "stereo unspecified", "MtTrpRS": 4.438, "CoaBC": 4.464}
{"compound": "Cc1nc(CCNc2ccc(-c3nc(C)c(C)c(=O)[nH]3)cn2)cs1", "MtTrpRS": -0.7346, "CoaBC": -2.781}
{"compound": "O=C(NCC1CC1)[C@H]1C[C@@H]2CCN(CCc3ccccc3)C[C@H]2O1", "MtTrpRS": 0.9856, "CoaBC": 5.068}
{"compound": "CCc1ncc(C(=O)N(C)Cc2cc(-c3ccncc3)no2)cn1", "MtTrpRS": -5.181, "CoaBC": -2.091}
{"compound": "O=C(NC1CC1)[C@@H]1CCO[C@@H]2CCN(C3CCOCC3)C[C@H]21", "MtTrpRS": -1.077, "CoaBC": 2.273}
{"compound": "CCOc1ccccc1-c1cc2c(cc1C(N)=O)OCO2", "MtTrpRS": -7.038, "CoaBC": -1.935}
{"compound": "CN(Cc1ccccc1)CC(C)(C)NC(=O)c1ccon1", "MtTrpRS": -0.06345, "CoaBC": 2.978}
{"compound": "Nc1ccc(C(=O)N2CCC(Oc3cccc(C(F)(F)F)c3)CC2)cn1", "MtTrpRS": -2.545, "CoaBC": -0.3686}
{"compound": "Cc1cc(CN2CCCN(c3ccc(C#N)cc3)CC2)no1", "MtTrpRS": -2.039, "CoaBC": -5.817}
{"compound": "CC(C)(C)SCCCC(=O)N1CCC(Nc2cccnn2)CC1", "MtTrpRS": -2.113, "CoaBC": 1.779}
{"compound": "O=C(CN(Cc1cccc(F)c1)CC1CCCO1)N1CCCC1", "stereo": "stereo unspecified", "MtTrpRS": -2.082, "CoaBC": 2.273}

From ChEMBL document CHEMBL3988442, “University of Dundee, Small-Polar-MMV Screening Library” (2021).